# Data taken from PubChem BioAssay AID493027 (The Scripps Research Institute Molecular Screening Center, 2011).
# Sequences of proteins named here, by UniProt entry; tags and fusion partners are left off. A change or cut given only in a name is not applied to a line headed by its entry.
# UniProt O60240: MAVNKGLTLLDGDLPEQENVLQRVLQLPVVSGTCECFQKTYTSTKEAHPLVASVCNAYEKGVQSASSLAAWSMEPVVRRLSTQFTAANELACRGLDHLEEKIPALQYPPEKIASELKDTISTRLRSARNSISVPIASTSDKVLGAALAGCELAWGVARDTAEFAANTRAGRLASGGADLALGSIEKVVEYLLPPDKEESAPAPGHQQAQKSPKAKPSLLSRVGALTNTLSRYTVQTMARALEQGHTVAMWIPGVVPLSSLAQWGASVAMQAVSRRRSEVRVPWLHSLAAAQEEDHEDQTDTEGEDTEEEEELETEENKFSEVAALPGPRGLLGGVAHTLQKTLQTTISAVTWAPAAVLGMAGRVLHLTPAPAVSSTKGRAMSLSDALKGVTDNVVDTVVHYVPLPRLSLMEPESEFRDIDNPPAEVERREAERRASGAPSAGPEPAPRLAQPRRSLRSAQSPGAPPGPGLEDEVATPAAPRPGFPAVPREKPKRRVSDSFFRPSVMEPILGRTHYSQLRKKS
# UniProt Q8WTS1: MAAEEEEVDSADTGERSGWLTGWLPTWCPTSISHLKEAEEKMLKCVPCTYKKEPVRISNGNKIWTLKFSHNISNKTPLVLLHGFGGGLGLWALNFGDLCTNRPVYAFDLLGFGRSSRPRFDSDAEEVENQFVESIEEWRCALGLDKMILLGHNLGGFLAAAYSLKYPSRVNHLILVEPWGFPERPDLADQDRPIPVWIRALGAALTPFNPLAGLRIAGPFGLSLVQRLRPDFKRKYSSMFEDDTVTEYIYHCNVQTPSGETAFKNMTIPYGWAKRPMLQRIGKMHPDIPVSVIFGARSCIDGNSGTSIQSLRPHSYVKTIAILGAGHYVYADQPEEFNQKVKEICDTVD
# Among all 2,000 compounds or so, about 45 (2%) were called active.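 How the source made its calls: active means inhibition above the screen-wide mean inhibition plus 3 SD (cut at about 44% in these data); inactive means the rest.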 This is one part of the list.
# Biological target: Perilipin-1 (Homo sapiens) + 1-acylglycerol-3-phosphate O-acyltransferase ABHD5 (Homo sapiens) (UniProt O60240+Q8WTS1)
# Assay: ABHD5-PLIN1 interaction inhibitors, pilot screen, cell lysate, split luciferase complementation, luminescence, NIH validation set (AID 493027);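 further: 0% = DMSO wells with the 100% control not disclosed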
# Conditions: split G. princeps luciferase complementation, 4 h; at 7.9 µM, active compounds read high
row,Structure (SMILES),inhibition
1,O=C(NCCC(c1ccccc1)c1ccco1)c1cccs1 (stereo not given),inactive: 9.41%
2,Cn1c2[n+](c3ccc(Cl)cc3c1=O)Cc1ccccc1-2,inactive: 0.88%
3,CC(C)(C)[C@]1(O)CCN2C[C@H]3c4ccccc4CCc4cccc(c43)[C@@H]2C1,inactive: -0.62%
4,CN1[C@@H]2CC[C@H]1CC(OC(=O)C(CO)c1ccccc1)C2 (stereo not given in full),inactive: -16.1%
5,COc1ccc(C2=C(CN(C)C)C(c3ccccc3)c3ccccc3O2)cc1 (stereo not given),inactive: 4.91%
6,CC1Cc2ccccc2N1NC(=O)c1ccc(Cl)c(S(N)(=O)=O)c1 (stereo not given),inactive: -8.02%
7,COc1ccc(CNCCC2(C(C)C)CCOC(C)(C)C2)cc1 (stereo not given),inactive: -6.33%
8,COc1ccc(C2CC(c3c(O)cc(C)oc3=O)=NCCS2)c(OC)c1 (stereo not given),inactive: 4.66%
9,O=C(Cc1ccccc1[N+](=O)[O-])NCCCN1CCOCC1,inactive: -7.14%
10,CCOC(=O)c1cccc(C(=O)OCC)n1,inactive: -5.12%
11,COc1cc(Cl)cc2c1Sc1ccccc1/C2=C/CCN(C)C,inactive: 6.32%
12,O=C(COc1ccccc1)Nc1ccc2c(c1)C(=O)N(CC1CCCO1)C2=O (stereo not given),inactive: -14.4%
13,O=C1C(Cc2c[nH]c3ccccc23)NC(=S)N1Cc1ccccc1 (stereo not given),inactive: -4.43%
14,CCOc1ccccc1OCCOc1ccc(F)cc1,inactive: -8.37%
15,O=C1CC2(CCCC2)CC(=O)N1CCCCN1CCN(c2ncccn2)CC1,inactive: -11.6%
16,COc1ccc2c(CC(=O)NCC3CCC(C(=O)O)CC3)cc(=O)oc2c1 (stereo not given),inactive: -2.79%
17,CC[C@H]1OC(=O)[C@H](C)[C@@H](O[C@H]2C[C@@](C)(OC)[C@@H](O)[C@H](C)O2)[C@H](C)[C@@H](O[C@@H]2O[C@H](C)C[C@H](N(C)C)[C@H]2O)[C@](C)(O)C[C@@H](C)[C@@H]2N[C@@H](COCCOC)O[C@H]([C@H]2C)[C@]1(C)O,inactive: -7.57%
18,CC(C)(C)n1c(=O)[nH]c2c(c1=O)CCC2,inactive: -0.81%
19,COc1ccc(N2C(=O)[C@@H]3Cc4ccccc4CN3C2=O)cc1,inactive: -7.22%
20,CCC(C(=O)OCCN(CC)CC)c1ccccc1 (stereo not given),inactive: 38.8%
21,CN(C)c1ccc(CNCCC(Cc2ccccc2)c2ccco2)cc1 (stereo not given),inactive: -15.2%
22,CCS(=O)(=O)Nc1cc(OC)c(OC)cc1Cc1nccc2cc(OC)c(OC)cc12,inactive: -4.13%
23,CC(=O)Nc1ccc(S(=O)(=O)c2ccc(N)cc2)cc1,inactive: -8.98%
24,Fc1ccc(-n2cc(CNCCc3ccccn3)c(-c3ccccc3Cl)n2)cc1,inactive: 1.9%

row,Structure (SMILES),inhibition
1,CCCN1CCC(NC(=O)Nc2ccc(Br)cc2)CC1,inactive: -9.54%
2,CCn1nc(C(=O)O)c(=O)c2cc3c(cc21)OCO3,inactive: -13.5%
3,COc1cccc(=O)c2c(C)n(CC(=O)c3ccccc3)c(C)c12,inactive: 22.5%
4,CC(C(=O)O)c1ccc(N2Cc3ccccc3C2=O)cc1 (stereo not given),inactive: -8.66%
5,Cc1ccc(Cl)c(Nc2ccccc2C(=O)O)c1Cl,inactive: 15.7%
6,O=C1ON=C(c2ccc(Cl)cc2)/C1=C/c1ccc(O)cc1,active: 82.8%
7,CCN1CCN(c2cc3c(cc2F)c(=O)c(C(=O)O)cn3C2CC2)CC1,inactive: -15.2%
8,CC(C)N1C(=O)/C(=C\c2nc3ccccc3c(=O)[nH]2)c2ccccc21,active: 70.2%
9,Cc1nnc(NS(=O)(=O)c2ccc(N)cc2)s1,inactive: -2.95%
10,CC(=O)OCC(OC(C)=O)C(OC(C)=O)C(OC(C)=O)C(=O)Nc1cccc(C)c1 (stereo not given),inactive: -6.24%
11,CC1CC(OC(=O)C(O)c2ccccc2)CC(C)(C)N1C (stereo not given),inactive: 2.6%
12,CCCOc1ccc(-c2cc(C(=O)NCC3CCCO3)c3ccccc3n2)cc1 (stereo not given),inactive: -2.49%
13,O=C(NCCc1c[nH]c2ccccc12)c1cccnc1,inactive: 3.48%
14,COc1ccc(/C=C\c2nc(=O)c3ccccc3o2)cc1,inactive: 0.84%
15,CC1(C)O[C@@H]2C[C@H]3[C@@H]4CCC5=CC(=O)C=C[C@]5(C)[C@@]4(F)[C@@H](O)C[C@]3(C)[C@]2(C(=O)CO)O1,inactive: -6.78%
16,O=C(O)CCCc1ccccc1,inactive: -0.6%
17,Cc1cnc(NC(=O)C2=C(O)c3ccccc3S(=O)(=O)N2C)s1,inactive: -7.39%
18,Cc1cccc(C(=O)c2cccc(C)c2)c1,inactive: -11.8%
19,O=C(CCC1CCCN(C(=O)c2ccsc2)C1)NCc1ccc(F)c(F)c1 (stereo not given),inactive: -3.63%
20,COc1cc(C2CC(=O)NC3=C2C(=O)CC(C)(C)C3)ccc1O (stereo not given),inactive: 4.1%
21,N#C/C(=C/c1ccccc1)C(=O)NCc1ccccc1,active: 53.3%
22,Cc1ccc(N2CCN(C(=S)c3ccc(-c4cccc([N+](=O)[O-])c4)o3)CC2)cc1,inactive: 4.66%
23,COc1ccc(-c2cc(=Nc3ccc(C)cc3)c3ccccc3o2)cc1,inactive: 7.52%
24,Cc1ccc(C(=O)NC(=S)NCCCN2CCOCC2)cc1,inactive: -1.64%

row,Structure (SMILES),inhibition
1,O=C(NCCN1CCCCC1)c1c(O)c2ccccc2[nH]c1=O,inactive: -2.32%
2,CCN(CC)C1=C(Cl)C(=O)C(Cl)C12OCCO2 (stereo not given),inactive: -5.32%
3,CC(C)CC(=O)OC1C(N2CCOCC2)c2c(ccc(/C=C/C(=O)N3CCOCC3)c2O)OC1(C)C (stereo not given),inactive: 3.66%
4,Nc1cccc2c1nnn2C1OC(CO)C(O)C(O)C1O (stereo not given),inactive: -5.44%
5,Cc1ccccc1C(=O)Oc1ccc(Sc2ccc(O)cc2)cc1,inactive: -3.79%
6,CC1(C)CC(NC(=O)C23CCC(C)(C(=O)C2=O)C3(C)C)CC(C)(C)N1 (stereo not given),inactive: -3.79%
7,N=c1c[n+](N2CCOCC2)[n-]o1,inactive: -7.07%
8,CN1CCN(CCCN2c3ccccc3Sc3ccc(Cl)cc32)CC1,inactive: 13.5%
9,COc1cccc2c1OCC1COc3c(c(=O)n(C)c(=O)n3C)C21 (stereo not given),inactive: 0%
10,O=C(O)C(O)c1ccccc1 (stereo not given),inactive: -10.2%
11,COc1ccc(-c2coc3cc(OC(=O)N4CCOCC4)ccc3c2=O)cc1,inactive: -1.5%
12,CC(C)(C)C(=O)N1CCCC1C(=O)O (stereo not given),inactive: -3.97%
13,COc1ccc(CCN(C)CCCC(C#N)(c2cc(OC)c(OC)c(OC)c2)C(C)C)cc1OC (stereo not given),inactive: -7.19%
14,CSc1cccc(NC(=O)/C=C/c2ccccc2)c1,inactive: -0.64%
15,COc1c2occc2c(OC)c2c(=O)cc(C)oc12,inactive: -2.56%
16,CC(C)c1ccccc1OCCNC(=S)NC(=O)c1cccnc1,inactive: 2.19%
17,O=c1[nH]c(=O)n(C2CCCO2)cc1F (stereo not given),inactive: 0.75%
18,CC(NCCC(c1ccccc1)c1ccccc1)c1ccccc1 (stereo not given),inactive: -1.09%
19,Oc1ccccc1OCCOc1ccccc1OCCOc1ccccc1O,inactive: 8.26%
20,CCOCC(=O)Nc1nc2ccccc2s1,inactive: -3.63%
21,CC(C)c1ccc(NC(=O)CNS(=O)(=O)c2ccc(F)cc2)cc1,inactive: 2.27%
22,CCOC(=O)C1C(=O)CC(C)(O)C(C(=O)OCC)C1/C=C/c1ccccc1 (stereo not given),inactive: -9.39%
23,CCc1cn([C@H]2C[C@H](O)[C@@H](CO)O2)c(=O)[nH]c1=O,inactive: 0.55%
24,CSCCC(NC(=O)/C(=C/c1ccc2c(c1)OCO2)NC(=O)c1cccc([N+](=O)[O-])c1)C(=O)O (stereo not given),inactive: -3.68%

# Structures from the list above that contain four or more nitrogen atoms, in the order listed:
row,Structure (SMILES),inhibition
15,O=C1CC2(CCCC2)CC(=O)N1CCCCN1CCN(c2ncccn2)CC1,inactive: -11.6%
24,Fc1ccc(-n2cc(CNCCc3ccccn3)c(-c3ccccc3Cl)n2)cc1,inactive: 1.9%
9,Cc1nnc(NS(=O)(=O)c2ccc(N)cc2)s1,inactive: -2.95%
4,Nc1cccc2c1nnn2C1OC(CO)C(O)C(O)C1O (stereo not given),inactive: -5.44%
7,N=c1c[n+](N2CCOCC2)[n-]o1,inactive: -7.07%

# Entries listed so far that have a thiophene ring, fused or not:
row,Structure (SMILES),inhibition
1,O=C(NCCC(c1ccccc1)c1ccco1)c1cccs1 (stereo not given),inactive: 9.41%
19,O=C(CCC1CCCN(C(=O)c2ccsc2)C1)NCc1ccc(F)c(F)c1 (stereo not given),inactive: -3.63%

# (cont.)

row,Structure (SMILES),inhibition
1,CN1CCc2c(n(CC(O)CN(CCO)CCO)c3ccccc23)C1=O (stereo not given),inactive: -3.39%
2,O=[N+]([O-])c1cccc2cn[nH]c12,inactive: -5.14%
3,COc1cccc(NC(=O)C2CC(=O)OC23CCOC(C)(C)C3)c1 (stereo not given),inactive: -4.43%
4,CC12CCC(C(=O)NCc3ccccn3)(OC1=O)C2(C)C (stereo not given),inactive: -6.54%
5,COC(=O)c1ccc(-c2ncc(-c3cccc4ccccc34)o2)cc1,inactive: -3.27%
6,CCCNCC(O)COc1ccccc1C(=O)CCc1ccccc1 (stereo not given),inactive: -5.56%
7,O=C(Nc1ccccc1C(=O)N1CCCCCC1)c1ccccc1Cl,inactive: -4.72%
8,O=C1[C@@H]2[C@H](Cc3ccc(O)cc3)N[C@]3(C(=O)Nc4ccccc43)[C@@H]2C(=O)N1c1ccc(F)cc1,inactive: 5.81%
9,CCOC(=O)N1CCN(Cc2nc(Cc3cccc(F)c3)no2)CC1,inactive: -1.53%
10,COc1ccc(NC(=O)Nc2ccc(C(C)C)cc2)cc1,inactive: -6.28%
11,C[C@H]1C[C@@H]2[C@H]([C@@H](O)C[C@@]3(C)[C@H]2CC[C@]3(O)C(=O)CO)[C@@]2(C)C=CC(=O)C=C12,inactive: -5.34%
12,O=C(O)c1cc(-c2ccccc2)nc2ccccc12,inactive: -6.78%
13,CC(=O)O[C@]1(C(C)=O)CC[C@H]2[C@@H]3C[C@H](C)C4=CC(=O)CC[C@]4(C)[C@H]3CC[C@@]21C,inactive: 3.35%
14,Nc1ccc2[nH]ncc2c1,inactive: -13.3%
15,Cc1ccc(S(=O)(=O)N2CCC(C(=O)N[C@@H](C)C(=O)NC3CCS(=O)(=O)C3)CC2)cc1 (stereo not given in full),inactive: -6.84%
16,NNC(=O)c1cc(O)c(O)c(O)c1,inactive: -7.59%
17,Cc1ccc2nc(C)c3c(c2c1)OC(C(C)(Cl)Br)C3 (stereo not given),inactive: -8.65%
18,CN(C)c1nc(N(C)C)nc(N(C)C)n1,inactive: -8.07%
19,O=C(CCc1c[nH]c2ccccc12)NCc1ccco1,inactive: 4.96%
20,COC(=O)CSc1nc2ccc(N)cc2s1,inactive: -12.6%
21,COc1ccc(NC(=O)C2CSC3c4ccccc4C(=O)N23)cc1 (stereo not given),inactive: 2.85%
22,CCN(CCCCCN(C)C)Cc1cc2ccccc2o1,inactive: -7.75%
23,COc1ccc(CCN(C)CC(=O)Nc2cc(C)nc3ccccc23)cc1OC,inactive: 3.27%
